# Reference: PubChem BioAssay AID1347426 (Functional Genomics Laboratory (NCATS/FGL), 2020)
# The whole screen tested about 31,000 sequences, of which about 1,400 (4.5%) were called active.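 Rule for the calls: active = median seed-adjusted z-score above 1 or below -1; inactive = the rest.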 This is one part of the list.
# Experiment: Novel Modifiers of Survival Motor Neuron (SMN) Protein: Gene Identification via Genome-wide siRNA Screen;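 note: luminescence tracks full-length SMN protein made from the SMN2 reporter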
# Settings: HEK293T SMN2-luciferase reporter, siRNA knockdown, 72 h; actives lie on both sides
# Outline: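 Luciferase signal, proportional to full-length SMN made from an SMN2 cDNA reporter in stable HEK293T cells, was read 72 h after siRNA reverse transfection. Values were expressed as MAD scores after non-targeting-control normalization and log10 conversion; seed analysis flagged off-targets.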
row,Sequence,median seed-adjusted z-score
1,CAGAGUAUCUACUGACAAATT against CDADC1,inactive: 0.544
2,CCUCUGCCUUGGACACCAUTT against SNCG,inactive: -0.169
3,CAGCAGCUAGUGGAAGACATT against ECEL1,inactive: -0.301
4,GGACUCAUCCGACAGCAUATT against ATF1,inactive: -0.112
5,GAACAAGGCAUAAACGGCATT against IBSP,inactive: -0.111
6,CUUGUGAGUUUAAAACGUATT against HSF2,inactive: -0.0228
7,CGGCUUCCGUUGUUGCAAATT against SLC16A1,inactive: -0.277
8,UGACGACACUGACCGCAGATT against UBE2S,inactive: 0.348
9,GCAAGGAUUUGGACGGUUUTT against MYST4,inactive: 0.138
10,GGCAAUGCUUUACUAUGAATT against ABCG8,inactive: -0.0233
11,GGAUAUUGAAAGUUAUGAATT against SGCZ,inactive: 0.0893
12,GCUACACCCUAAUCACAGATT against SLC22A1,inactive: -0.637
13,AGAUAGAAAUUGACUUUGATT against BRD3,inactive: 0.633
14,GGUUCACAGUGCAUAUACATT against CASP10,inactive: -0.0372
15,CCAACCUUUUUAGACAUCATT against ZNF394,inactive: -0.462
16,CCCUCUCCGUGUCCUACAATT against SLC6A17,inactive: -0.41
17,CAUCACUUGUGAUGGUAAATT against FABP5,inactive: -0.258
18,CGGCACCUGUUUCAAGAGATT against CHRND,inactive: -0.112
19,CGUCGAUAUCAGAAUCCUATT against MST101,inactive: -0.293
20,GCACUUACCAAAAAUCCGATT against MAP4K3,inactive: -0.49
21,GUAUCUGGGUUGCACAUGATT against HRH1,inactive: 0.204
22,GCAAUGUGCCUACUCAUAUTT against LCLAT1,inactive: 0

row,Sequence,median seed-adjusted z-score
1,CCAAAAUUAUGGUCUGUGATT against CNTFR,inactive: 0
2,GUAUCAUGGAUGGAAAAGATT against ASRGL1,inactive: 0
3,GCACCGAGCUUUACAGUGUTT against LARP1,inactive: 0.251
4,GCAGUAUGAUGAGGAUGGATT against KLC4,inactive: 0
5,CGGCACUAAUGAUCUGGAATT against SEC11A,inactive: -0.494
6,GCCUGGGAAUGAACAUUGUTT against MS4A12,inactive: -0.881
7,CAGUGUCCGAGAUCAUAGATT against ACSBG1,inactive: 0.113
8,GAUAUGUCUUCUACAAUAATT against ZNF280A,inactive: -0.207
9,CCUUAGUCCUGAUCAACCUTT against TTLL6,inactive: -0.661
10,AACCCUACCUGGCAUUGUATT against DYNLL2,inactive: -0.201
11,CCAUCCAUCCUUCAACUUATT against PNPLA3,inactive: -0.0642
12,GCACUAGCAGAGUCCGAAATT against OPRK1,active: -1.08
13,CUACCACAACUUCACCAAATT against TSP50,inactive: 0.133
14,CGAGAUAGGCAAUACGAAATT against ENTPD7,inactive: 0.368
15,CAAGCGAUGUUUUUCGUUUTT against USP13,inactive: -0.044
16,GGAUGUGGACGGUAUGUCATT against BRAP,inactive: 0.267
17,CAUUCGUCGCUGAACAGAATT against EIF4G1,inactive: -0.978
18,CCCAACAACUGGUAUCUUUTT against CD33,inactive: -0.355
19,CCACCUAGCUUGUAACGAATT against EP400,active: 1.83
20,GGACUGUAAAGGACAUAUUTT against TRPC3,inactive: -0.0856
21,GGUUGACCGUGGAGGUAGATT against KRT18,inactive: 0.558
22,GGUCCAGAGCGACUUCAUGTT against POU3F3,inactive: -0.366

# Rewritten bar-delimited: part of the list above
row | Sequence | median seed-adjusted z-score
22 | GCAAUGUGCCUACUCAUAUTT against LCLAT1 | inactive: 0
7 | CAGUGUCCGAGAUCAUAGATT against ACSBG1 | inactive: 0.113
9 | CCUUAGUCCUGAUCAACCUTT against TTLL6 | inactive: -0.661
19 | CCACCUAGCUUGUAACGAATT against EP400 | active: 1.83
22 | GGUCCAGAGCGACUUCAUGTT against POU3F3 | inactive: -0.366

# Carrying on.

row,Sequence,median seed-adjusted z-score
1,GGAGUUUAUCUAUACAGCATT against HAL,inactive: 0
2,ACACUGACCUGUUCGAGUATT against SV2A,inactive: 0.138
3,GAAGGAAUGAAAUCCGGAATT against TRIM8,inactive: -0.296
4,GGAAGACUAGGAAUCGGAATT against NYX,inactive: 0.0685
5,GCAAUAUUCAUGUUACCAATT against CDH24,inactive: 0.31
6,CCAAAUACCAGAUACUGUUTT against VIPR2,inactive: 0.706
7,CACCAACUAAUGUUACAAUTT against IFNGR1,inactive: -0.279
8,GUGGUGAGAUUCUACCGUATT against IQGAP3,inactive: -0.183
9,GGGUCCAUUCCUCACUAUATT against KRTAP5-7,inactive: -0.279
10,UGCUGGUGCUCGUCCUCUATT against OPN3,inactive: -0.916
11,GCACAACGGCAACUAUACATT against DSCAML1,inactive: 0.237
12,GCAAGACUGUGAUUCUGGUTT against RBM19,inactive: 0.204
13,AAAGCUGGAUGGUACUCCATT against DNAL1,inactive: 0.866
14,GGACAAAACUCCUCUCUAUTT against MED27,active: -1.62
15,GCAUCGUGCUGAAGUAUGATT against NSUN2,inactive: -0.707
16,CCACUAUGGUUACAGCACUTT against ATP1B2,inactive: -0.185
17,GCACAUGACUCAGAAGGAATT against WDFY3,inactive: -0.12
18,GCUUAUGCAUCAUAUGAUATT against ANGPTL5,inactive: 0
19,ACAUCAAGGCGCAUGUGAATT against IL10,inactive: 0.0967
20,GCGAUGACAUUGACCUAGATT against OPTC,inactive: 0.0953
21,GAUCUUGUCGAAUAGAGCATT against HOXD10,inactive: -0.374
22,CAGGGUCGAUUUAGAGGAATT against POLR3A,inactive: 0.395

row,Sequence,median seed-adjusted z-score
1,GGUCAUUCAGUACAUGAGATT against RIOK1,inactive: 0.0528
2,CACCUACUCUGACAACCAATT against HSPA1L,active: -1.27
3,GGAUGGUCAUCUAUUUCUUTT against MMD2,inactive: -0.0908
4,CGAAUUAGCUGAGGAGAUATT against SLC17A8,inactive: -0.332
5,GCCUCAGUCUUUGCAGUCUTT against CDCP2,inactive: 0.0708
6,GCUGCGUCAUUUUCGAAAATT against MOXD1,inactive: -0.162
7,CGAUUACGCUUCAGAGAUATT against PTP4A2,active: -1.45
8,GGACAGCUACGUGAAGAUUTT against PAK6,inactive: -0.57
9,GCACUUGUAUAAUCAGACUTT against MRLC2,inactive: -0.492
10,GUCACGUACUCGCUGCUGATT against SMAD6,inactive: -0.167
11,CAUUAGUACUUCGAUCUAUTT against PHCA,inactive: 0.0568
12,GAGCUGACCUUAGGACCGATT against CALML3,inactive: 0
13,CGAAGAUUAGUACAAGUCUTT against LCP1,inactive: -0.386
14,CAAUCGUCAUAAUGUCUAUTT against A2M,active: -1.96
15,GCAGAGAUCUUUGUAGUCUTT against FTSJ3,inactive: 0.437
16,CGAGUUCCGUCCCUACCAATT against COX6A2,inactive: 0.714
17,GAUGGAAACCGUAAUCCUATT against P4HA1,inactive: -0.293
18,AGUUAGGCACAGUCAGACATT against POLD4,inactive: 0.225
19,CAGCGUACCCGAUACCUUATT against SIRPD,inactive: -0.257
20,CGAGGAUUCAAGCUGAACATT against ARL2,inactive: 0.0301
21,GGCACUCAGCGCAAGAAGATT against TIGD5,inactive: 0
22,GCGCAUUCCUUUGCAAGCATT against AURKA,inactive: -0.108

row,Sequence,median seed-adjusted z-score
1,GGACUGGAUUGAAAACCAUTT against KALRN,inactive: 0.305
2,GCGGAUACAAUGUGACGUATT against L1CAM,inactive: 0
3,GGAGUUUGCAGACAACCGATT against WNK3,inactive: -0.466
4,CACCACUAAUGUCAACAAUTT against LPAR4,inactive: -0.321
5,CCUCCAGCGAUGCUUCACATT against TIRAP,inactive: -0.431
6,AGGCCGUGUUCGCAGAGUUTT against AQP5,inactive: -0.116
7,CAAGCGAUGAUGACUCUAATT against RASGRF2,inactive: -0.225
8,GGGACGAUUGUAUCAAGUATT against SLC27A4,inactive: 0.119
9,GGCUUUUGGUUGUACUGCUTT against SLC27A6,inactive: -0.172
10,ACAUGGACAAUGCCGCAGATT against HSPBP1,inactive: 0.368
11,ACAGCAUUUUACCACCCUATT against CHI3L1,inactive: 0.145
12,GGAAAUACCGUAUAAAACUTT against ASB2,inactive: -0.825
13,GAUGGAUGUUCUACUGAAATT against ORC5L,inactive: -0.126
14,CAGCUUCAUUUAGAGUACATT against CSNK1G1,inactive: -0.255
15,CCAGCGAUGUAAUCGAAAATT against FABP6,inactive: 0.122
16,ACACUAGUCUUAUCAAAAATT against SOX17,inactive: -0.46
17,GAUUAUUGACACUCCCAUATT against PDHB,inactive: -0.478
18,CGAGAAAGAAUUCCACUUUTT against HOXC5,inactive: 0.507
19,GGAUGACUCAAAUUCAGGUTT against CBLL1,inactive: -0.466
20,AGCUGGGUAUGGAUGCUUATT against KRT6C,inactive: -0.275

# Retrieved one by one from the entries so far:
row,Sequence,median seed-adjusted z-score
6,AGGCCGUGUUCGCAGAGUUTT against AQP5,inactive: -0.116
11,ACAGCAUUUUACCACCCUATT against CHI3L1,inactive: 0.145
15,CCAGCGAUGUAAUCGAAAATT against FABP6,inactive: 0.122
17,GAUUAUUGACACUCCCAUATT against PDHB,inactive: -0.478
